Our source for the binding values is US20050112121A1 (YALE UNIVERSITY, published 2005).

Amino acid sequences for entries named in this document (tags omitted). Residues count along the entry.
UniProt P07207, residues 53-2703: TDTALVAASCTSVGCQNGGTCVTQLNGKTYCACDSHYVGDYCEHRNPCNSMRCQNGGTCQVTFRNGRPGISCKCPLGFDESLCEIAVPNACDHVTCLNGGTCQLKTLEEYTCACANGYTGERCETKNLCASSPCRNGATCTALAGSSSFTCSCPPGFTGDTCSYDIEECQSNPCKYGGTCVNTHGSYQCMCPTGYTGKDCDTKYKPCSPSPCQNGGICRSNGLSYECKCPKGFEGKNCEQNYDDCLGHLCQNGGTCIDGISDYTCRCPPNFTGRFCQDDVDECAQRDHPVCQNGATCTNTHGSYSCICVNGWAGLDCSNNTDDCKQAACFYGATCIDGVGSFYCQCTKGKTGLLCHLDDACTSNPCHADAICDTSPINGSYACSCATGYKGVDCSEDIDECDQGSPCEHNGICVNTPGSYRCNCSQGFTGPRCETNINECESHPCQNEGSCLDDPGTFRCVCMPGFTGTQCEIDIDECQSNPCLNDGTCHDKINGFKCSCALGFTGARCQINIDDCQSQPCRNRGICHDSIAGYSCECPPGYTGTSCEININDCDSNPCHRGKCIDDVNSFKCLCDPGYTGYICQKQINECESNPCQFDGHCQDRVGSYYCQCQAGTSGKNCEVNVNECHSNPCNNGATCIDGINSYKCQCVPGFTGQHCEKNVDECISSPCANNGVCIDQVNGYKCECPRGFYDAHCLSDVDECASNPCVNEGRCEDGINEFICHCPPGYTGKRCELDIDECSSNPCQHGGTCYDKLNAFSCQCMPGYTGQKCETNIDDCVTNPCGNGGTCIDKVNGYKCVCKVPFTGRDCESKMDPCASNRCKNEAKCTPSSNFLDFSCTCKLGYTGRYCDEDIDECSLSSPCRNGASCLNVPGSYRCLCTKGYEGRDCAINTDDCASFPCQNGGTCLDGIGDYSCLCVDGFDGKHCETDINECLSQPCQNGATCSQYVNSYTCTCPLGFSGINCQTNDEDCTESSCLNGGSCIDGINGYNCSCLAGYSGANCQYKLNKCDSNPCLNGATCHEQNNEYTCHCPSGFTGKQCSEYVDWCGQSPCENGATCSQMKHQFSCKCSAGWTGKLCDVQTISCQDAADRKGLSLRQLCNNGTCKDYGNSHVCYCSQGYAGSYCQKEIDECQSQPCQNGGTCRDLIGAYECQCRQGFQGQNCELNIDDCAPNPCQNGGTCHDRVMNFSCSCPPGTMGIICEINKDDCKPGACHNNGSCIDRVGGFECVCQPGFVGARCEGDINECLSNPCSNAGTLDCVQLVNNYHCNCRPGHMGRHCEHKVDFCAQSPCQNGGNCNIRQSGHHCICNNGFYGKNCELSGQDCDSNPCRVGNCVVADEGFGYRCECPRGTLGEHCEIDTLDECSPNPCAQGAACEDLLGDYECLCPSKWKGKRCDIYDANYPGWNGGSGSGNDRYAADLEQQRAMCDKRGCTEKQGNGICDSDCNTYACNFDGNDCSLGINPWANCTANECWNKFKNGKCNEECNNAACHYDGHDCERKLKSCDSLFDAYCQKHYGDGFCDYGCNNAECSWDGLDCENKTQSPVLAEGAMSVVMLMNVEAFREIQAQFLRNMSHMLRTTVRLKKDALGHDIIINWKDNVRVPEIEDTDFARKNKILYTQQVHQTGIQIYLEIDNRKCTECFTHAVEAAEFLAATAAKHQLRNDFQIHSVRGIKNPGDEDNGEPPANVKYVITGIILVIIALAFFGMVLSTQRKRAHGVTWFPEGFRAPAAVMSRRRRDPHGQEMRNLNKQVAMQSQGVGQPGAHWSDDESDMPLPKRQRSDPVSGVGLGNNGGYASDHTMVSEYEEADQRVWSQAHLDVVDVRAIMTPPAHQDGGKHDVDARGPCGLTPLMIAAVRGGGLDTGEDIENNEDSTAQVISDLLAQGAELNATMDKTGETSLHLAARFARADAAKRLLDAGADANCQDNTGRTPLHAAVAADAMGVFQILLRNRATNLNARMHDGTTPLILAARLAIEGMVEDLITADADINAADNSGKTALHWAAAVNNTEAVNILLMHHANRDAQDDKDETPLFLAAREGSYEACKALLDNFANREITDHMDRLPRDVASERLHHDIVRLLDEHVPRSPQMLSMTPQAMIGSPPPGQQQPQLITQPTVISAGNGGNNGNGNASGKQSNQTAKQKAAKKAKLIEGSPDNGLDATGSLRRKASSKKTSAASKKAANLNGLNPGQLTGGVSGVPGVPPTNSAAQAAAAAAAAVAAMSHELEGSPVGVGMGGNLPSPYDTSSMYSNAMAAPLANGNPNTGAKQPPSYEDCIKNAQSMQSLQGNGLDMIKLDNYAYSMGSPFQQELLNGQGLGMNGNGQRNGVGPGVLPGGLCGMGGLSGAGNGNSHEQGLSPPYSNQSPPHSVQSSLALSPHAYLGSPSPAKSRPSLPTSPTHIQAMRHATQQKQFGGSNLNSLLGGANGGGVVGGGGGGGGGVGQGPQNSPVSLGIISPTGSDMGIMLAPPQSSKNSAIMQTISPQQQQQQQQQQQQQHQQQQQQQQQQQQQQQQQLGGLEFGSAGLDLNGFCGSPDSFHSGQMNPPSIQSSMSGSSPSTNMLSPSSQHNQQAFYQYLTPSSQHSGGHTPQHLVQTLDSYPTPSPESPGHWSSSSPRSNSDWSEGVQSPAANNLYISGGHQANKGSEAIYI

These are yes or no findings as the source states them, for the method shown. Some entries that bind do so weakly or less than the wild type.

Test [1] addresses T1, Serrate (Drosophila), expression construct Ser-mtn (Drosophila) (UniProt P18168).
T1 sequence (looked up): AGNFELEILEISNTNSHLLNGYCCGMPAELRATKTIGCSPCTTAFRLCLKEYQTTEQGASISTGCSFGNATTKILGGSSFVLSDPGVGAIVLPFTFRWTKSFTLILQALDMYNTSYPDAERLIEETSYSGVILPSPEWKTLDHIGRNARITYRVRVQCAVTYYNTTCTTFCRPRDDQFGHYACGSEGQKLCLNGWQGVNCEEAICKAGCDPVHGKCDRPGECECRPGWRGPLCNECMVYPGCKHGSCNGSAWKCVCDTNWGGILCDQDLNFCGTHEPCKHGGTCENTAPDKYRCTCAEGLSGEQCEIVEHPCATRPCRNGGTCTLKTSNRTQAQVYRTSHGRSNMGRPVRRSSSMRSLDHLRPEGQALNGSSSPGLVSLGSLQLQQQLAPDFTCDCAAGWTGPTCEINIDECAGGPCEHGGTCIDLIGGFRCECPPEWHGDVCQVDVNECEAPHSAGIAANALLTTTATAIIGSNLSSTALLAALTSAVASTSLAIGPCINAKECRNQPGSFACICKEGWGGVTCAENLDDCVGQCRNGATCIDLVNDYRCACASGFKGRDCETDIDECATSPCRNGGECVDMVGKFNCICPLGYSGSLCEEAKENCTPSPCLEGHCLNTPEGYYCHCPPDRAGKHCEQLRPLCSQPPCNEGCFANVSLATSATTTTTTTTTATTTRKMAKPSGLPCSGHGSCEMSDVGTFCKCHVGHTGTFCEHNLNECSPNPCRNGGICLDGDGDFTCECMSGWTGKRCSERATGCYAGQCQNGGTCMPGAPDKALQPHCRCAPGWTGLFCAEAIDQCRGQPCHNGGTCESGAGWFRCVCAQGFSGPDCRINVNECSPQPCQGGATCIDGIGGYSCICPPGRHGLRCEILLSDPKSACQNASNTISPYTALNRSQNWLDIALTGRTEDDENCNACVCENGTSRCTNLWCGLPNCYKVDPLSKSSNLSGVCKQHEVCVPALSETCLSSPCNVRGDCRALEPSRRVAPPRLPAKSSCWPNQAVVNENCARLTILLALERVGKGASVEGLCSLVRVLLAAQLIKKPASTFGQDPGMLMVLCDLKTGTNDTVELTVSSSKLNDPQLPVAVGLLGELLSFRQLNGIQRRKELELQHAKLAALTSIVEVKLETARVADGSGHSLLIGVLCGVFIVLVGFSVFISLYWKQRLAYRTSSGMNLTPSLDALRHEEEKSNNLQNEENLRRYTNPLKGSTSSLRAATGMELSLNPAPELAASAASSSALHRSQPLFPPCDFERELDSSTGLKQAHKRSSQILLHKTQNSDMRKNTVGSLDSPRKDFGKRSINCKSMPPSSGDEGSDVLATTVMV
Put plainly: S2 cell aggregation assay.

Test [2] has as its target Notch (Drosophila), full length Notch expression construct #1 pMtNMg (Drosophila) (UniProt P07207). Put plainly: S2 cell aggregation assay.

For “Notch (Drosophila), full length Notch expression construct #1 pMtNMg (from UniProt P07207 53-2703) (receptor)”, in test [1], the binding result was “binds”.

B1: Serrate (Drosophila), expression construct Ser-mtn (ligand, UniProt P18168 83-1407, looked up)
chain: AGNFELEILEISNTNSHLLNGYCCGMPAELRATKTIGCSPCTTAFRLCLKEYQTTEQGASISTGCSFGNATTKILGGSSFVLSDPGVGAIVLPFTFRWTKSFTLILQALDMYNTSYPDAERLIEETSYSGVILPSPEWKTLDHIGRNARITYRVRVQCAVTYYNTTCTTFCRPRDDQFGHYACGSEGQKLCLNGWQGVNCEEAICKAGCDPVHGKCDRPGECECRPGWRGPLCNECMVYPGCKHGSCNGSAWKCVCDTNWGGILCDQDLNFCGTHEPCKHGGTCENTAPDKYRCTCAEGLSGEQCEIVEHPCATRPCRNGGTCTLKTSNRTQAQVYRTSHGRSNMGRPVRRSSSMRSLDHLRPEGQALNGSSSPGLVSLGSLQLQQQLAPDFTCDCAAGWTGPTCEINIDECAGGPCEHGGTCIDLIGGFRCECPPEWHGDVCQVDVNECEAPHSAGIAANALLTTTATAIIGSNLSSTALLAALTSAVASTSLAIGPCINAKECRNQPGSFACICKEGWGGVTCAENLDDCVGQCRNGATCIDLVNDYRCACASGFKGRDCETDIDECATSPCRNGGECVDMVGKFNCICPLGYSGSLCEEAKENCTPSPCLEGHCLNTPEGYYCHCPPDRAGKHCEQLRPLCSQPPCNEGCFANVSLATSATTTTTTTTTATTTRKMAKPSGLPCSGHGSCEMSDVGTFCKCHVGHTGTFCEHNLNECSPNPCRNGGICLDGDGDFTCECMSGWTGKRCSERATGCYAGQCQNGGTCMPGAPDKALQPHCRCAPGWTGLFCAEAIDQCRGQPCHNGGTCESGAGWFRCVCAQGFSGPDCRINVNECSPQPCQGGATCIDGIGGYSCICPPGRHGLRCEILLSDPKSACQNASNTISPYTALNRSQNWLDIALTGRTEDDENCNACVCENGTSRCTNLWCGLPNCYKVDPLSKSSNLSGVCKQHEVCVPALSETCLSSPCNVRGDCRALEPSRRVAPPRLPAKSSCWPNQAVVNENCARLTILLALERVGKGASVEGLCSLVRVLLAAQLIKKPASTFGQDPGMLMVLCDLKTGTNDTVELTVSSSKLNDPQLPVAVGLLGELLSFRQLNGIQRRKELELQHAKLAALTSIVEVKLETARVADGSGHSLLIGVLCGVFIVLVGFSVFISLYWKQRLAYRTSSGMNLTPSLDALRHEEEKSNNLQNEENLRRYTNPLKGSTSSLRAATGMELSLNPAPELAASAASSSALHRSQPLFPPCDFERELDSSTGLKQAHKRSSQILLHKTQNSDMRKNTVGSLDSPRKDFGKRSINCKSMPPSSGDEGSDVLATTVMV
notes: whole, on cells
Turning to B1, the binding entry in test [2] is “binds”.
